Experimental data published in paper PMC3577914.
These are yes or no findings as the source states them, for the method shown. In cells and extracts the contact can be indirect. Some binding calls cover weakened binding; strength is not graded here. For part of these data: Sequences can lack the tags named with a protein.

Chains of the proteins cited; added tags and fusions are not shown.
UniProt Q91VH2: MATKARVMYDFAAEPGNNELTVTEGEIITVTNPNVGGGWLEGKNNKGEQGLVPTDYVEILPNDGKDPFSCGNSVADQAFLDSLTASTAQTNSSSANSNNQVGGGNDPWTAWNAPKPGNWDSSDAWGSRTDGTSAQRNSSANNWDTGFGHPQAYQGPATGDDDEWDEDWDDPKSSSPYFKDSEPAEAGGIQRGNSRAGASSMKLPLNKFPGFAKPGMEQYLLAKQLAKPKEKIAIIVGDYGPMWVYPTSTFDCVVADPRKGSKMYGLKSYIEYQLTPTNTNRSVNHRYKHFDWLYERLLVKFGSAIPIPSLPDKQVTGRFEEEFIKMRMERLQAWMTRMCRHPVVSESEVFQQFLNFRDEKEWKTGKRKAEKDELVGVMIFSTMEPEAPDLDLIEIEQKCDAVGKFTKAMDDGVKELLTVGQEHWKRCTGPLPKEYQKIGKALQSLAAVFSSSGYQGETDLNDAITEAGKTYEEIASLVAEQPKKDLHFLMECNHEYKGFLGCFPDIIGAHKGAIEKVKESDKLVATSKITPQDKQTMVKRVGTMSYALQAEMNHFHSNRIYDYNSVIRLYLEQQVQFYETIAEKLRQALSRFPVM
UniProt Q6PFY1: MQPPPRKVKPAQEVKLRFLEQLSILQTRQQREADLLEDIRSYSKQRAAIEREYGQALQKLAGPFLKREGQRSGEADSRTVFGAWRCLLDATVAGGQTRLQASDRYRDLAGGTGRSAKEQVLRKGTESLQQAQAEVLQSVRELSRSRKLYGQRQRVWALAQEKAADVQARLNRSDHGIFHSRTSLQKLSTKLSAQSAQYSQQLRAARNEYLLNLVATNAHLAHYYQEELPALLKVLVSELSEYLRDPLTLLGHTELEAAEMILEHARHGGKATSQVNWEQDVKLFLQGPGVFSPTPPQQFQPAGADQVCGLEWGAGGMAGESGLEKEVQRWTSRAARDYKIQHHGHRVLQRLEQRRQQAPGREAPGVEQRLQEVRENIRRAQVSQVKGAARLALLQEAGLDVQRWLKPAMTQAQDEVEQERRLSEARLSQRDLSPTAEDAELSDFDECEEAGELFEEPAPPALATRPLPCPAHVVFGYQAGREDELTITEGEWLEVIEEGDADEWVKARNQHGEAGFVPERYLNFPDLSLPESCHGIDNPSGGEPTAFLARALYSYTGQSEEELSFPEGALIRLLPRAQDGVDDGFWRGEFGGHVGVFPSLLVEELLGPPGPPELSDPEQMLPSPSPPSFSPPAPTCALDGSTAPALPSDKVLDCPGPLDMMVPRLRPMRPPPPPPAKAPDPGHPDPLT

Columns and labels:
Experiment in all cases: co-IP; HEK293 cells transfected with epitope-tagged proteins; lysis in 150 mM NaCl, 50 mM Tris pH 7.5, 1% Triton X-100 or RIPA buffer; anti-Myc antibody with Protein A/G agarose overnight at 4°C; Western blot
[1] = biological target: Sorting Nexin 9 (SNX9), mouse, epitope-tagged (mouse) (UniProt Q91VH2)
[2] = biological target: T1, FCHSD2 (FCH domain and double SH3 domains containing protein 2), mouse, epitope-tagged full-length (mouse) (UniProt Q3USJ8)
T1 sequence: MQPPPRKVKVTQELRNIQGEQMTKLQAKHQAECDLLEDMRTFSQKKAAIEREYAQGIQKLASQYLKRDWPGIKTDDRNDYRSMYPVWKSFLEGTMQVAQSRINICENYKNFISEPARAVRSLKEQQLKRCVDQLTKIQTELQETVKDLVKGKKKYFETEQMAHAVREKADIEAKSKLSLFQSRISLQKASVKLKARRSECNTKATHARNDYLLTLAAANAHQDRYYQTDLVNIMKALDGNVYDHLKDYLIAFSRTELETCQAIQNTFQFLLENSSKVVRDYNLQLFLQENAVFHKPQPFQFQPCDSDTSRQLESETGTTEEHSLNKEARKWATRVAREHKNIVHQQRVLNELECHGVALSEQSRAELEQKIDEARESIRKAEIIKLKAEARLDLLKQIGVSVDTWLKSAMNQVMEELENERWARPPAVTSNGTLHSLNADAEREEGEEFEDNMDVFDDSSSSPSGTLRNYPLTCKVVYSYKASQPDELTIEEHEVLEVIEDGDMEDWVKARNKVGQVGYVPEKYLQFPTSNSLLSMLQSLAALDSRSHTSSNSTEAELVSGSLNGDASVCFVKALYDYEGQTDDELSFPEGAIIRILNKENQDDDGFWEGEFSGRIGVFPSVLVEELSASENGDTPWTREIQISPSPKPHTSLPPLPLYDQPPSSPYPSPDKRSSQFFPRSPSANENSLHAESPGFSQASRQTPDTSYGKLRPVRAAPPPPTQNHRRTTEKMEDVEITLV

[3] = biological target: FCHSD1 (FCH domain and double SH3 domains containing protein 1), mouse, epitope-tagged full-length (mouse) (UniProt Q6PFY1)

Measured: binding

FCHSD1 (FCH domain and double SH3 domains containing protein 1), mouse, epitope-tagged full-length (from UniProt Q6PFY1 1-688)
binds: all assays above
